Assay results reported in US20230330093A1, “APPLICATION OF NITROGEN-CONTAINING SATURATED HETEROCYCLIC COMPOUND” (SHANGHAI PHARMACEUTICALS HOLDING CO., LTD., priority 2020, published 2023).
At least one read-out could not be matched to a standard name with certainty.

Assay: Plasma pharmacokinetics and bioavailability after intravenous and oral administration
Format: in vivo, cynomolgus monkeys
Conditions: oral 1, 3, 9 mg/kg, monkeys
Description: Cynomolgus monkeys (3/sex/group: weight 3-5 kg, age 5-6 years old) were obtained from SuZhou XiShan ZhongKe Laboratory Animals (Shanghai, China). Animals were housed for a 7-day acclimation period before study. The monkeys were individually caged in a controlled temperature (18-26° C.) and humidity (50±20%) animal room with an air flow of 10 plus air changes per hour with fresh air. The lighting cycle was 12 h on and 12 h off, and the monkeys were fed once a day in the morning. All animal experiments were performed in accordance with the Animal Care and Use Guidelines set by the AMMS Animal Care and Use Committee.
The compound of Formula I was intravenously or orally administered to cynomolgus monkeys fasted overnight. The doses were 1 mg/kg (intravenous), 1 mg/kg, 3 mg/kg, and 9 mg/kg (oral). […] The concentrations of the compound of Formula I in plasma were determined by the validated liquid chromatography-tandem mass spectrometry method.
The pharmacokinetic parameters such as the area under the plasma concentration-time curve (AUC), maximum plasma concentration (Cmax), time to reach Cmax (Tmax), half-life (T1/2), total body plasma clearance (CL), mean residence time (MRT) and volume of distribution at steady state (Vss) were calculated by non-compartmental analysis with WinNonlin v1.3 (Pharsight, Mountain View, CA, USA). […]

COC(=O)NCCCn1nc([C@@H](C)N(C(=O)[C@H]2CNCCO2)C2CC2)c2ccc(C)nc21 [compound of Formula I]
time at which Cmax was reached: 1.0 to 1.30 h
